These are yes or no findings as the source states them, for the method shown. Binding seen in cells or lysates may run through a third protein. Tags and fused reporters may be left off the sequences shown.
molecular target: T1, HA–CSQ2 (hemagglutinin-tagged human calsequestrin 2) (human) (UniProt O14958); assay: co-IP; HA–CSQ2 immunoprecipitated with anti-HA from CHAPS-solubilised lysates of co-transfected HEK293 cells; partner detected by immunoblot (Ab1093 or anti-Myc); non-immune rabbit IgG as control; residual micromolar Ca2+
T1 sequence: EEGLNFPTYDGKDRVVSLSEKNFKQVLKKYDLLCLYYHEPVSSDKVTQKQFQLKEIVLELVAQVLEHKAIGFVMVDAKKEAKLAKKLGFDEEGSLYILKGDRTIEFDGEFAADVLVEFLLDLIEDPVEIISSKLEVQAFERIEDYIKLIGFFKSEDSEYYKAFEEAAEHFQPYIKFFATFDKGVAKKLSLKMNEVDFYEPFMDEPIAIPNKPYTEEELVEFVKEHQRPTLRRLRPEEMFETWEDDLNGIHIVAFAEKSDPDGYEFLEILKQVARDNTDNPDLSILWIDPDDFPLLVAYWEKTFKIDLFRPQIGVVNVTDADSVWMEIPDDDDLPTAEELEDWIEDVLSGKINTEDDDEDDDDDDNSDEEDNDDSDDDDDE

binding	Substance
no binding	Myc-tagged BT1B2 (human RyR2 C-terminal fragment) (domain or fragment)
no binding	Myc-tagged BT1D (human RyR2 C-terminal fragment) (domain or fragment)
no binding	Myc-tagged BT9 (human RyR2 C-terminal fragment) (domain or fragment)
